Data as given in the supplement of paper PMC12067093, “Discovery and optimisation of a covalent ligand for TRIM25 and its application to targeted protein ubiquitination” (Chemical Science, 2025).
This is one part of the list.

Compound: Cc1cc(ccc1-c1ccccc1)C(=O)N1CCCN(CC1)C(=O)CCl [compound 10]
Assay: probe-labelled cysteine peptide fold change vs DMSO (competition) (log2 fold change); higher = less target engagement (more negative = stronger competition)
Settings: THP-1, incubation time: 4 h
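Also: competitive profiling in live THP-1 cells: cysteine peptides tagged with an iodoacetamide desthiobiotin (IA-DTB) probe, intensity after compound treatment relative to DMSO-treated cells.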

Row | Target | probe-labelled cysteine peptide fold change (10 µM) | probe-labelled cysteine peptide fold change (50 µM)
1 | CPM_P14384_341_KHICPYR (UniProt P14384) | -0.0518 | -0.455
2 | CREBBP_Q92793_1213_KYEFSPQTLCCYGK (UniProt Q92793) | 0.00616 | -0.514
3 | CSE1L_P55060_61_VCASVTFK (UniProt P55060) | -0.071 | 0.0214
4 | CPPED1_Q9BRF8_197_HCQHAIVFQHIPLFLESIDEDDDYYFNLSK (UniProt Q9BRF8) | -0.00915 | 0.0877
5 | CORO1C_Q9ULV4_283_NMQEPIALHEMDTSNGVLLPFYDPDTSIIYLCGK (UniProt Q9ULV4) | 0.153 | -0.118
6 | CRELD1_Q96HD1_135_QQEAPDLFQWLCSDSLK (UniProt Q96HD1) | -0.0388 | 0.279
7 | CTNND1_O60716_516_MEIVDHALHALTDEVIIPHSGWEREPNEDCKPR (UniProt O60716) | -0.133 | -0.0646
8 | CORO1C_Q9ULV4_420_CDLISIPK (UniProt Q9ULV4) | -0.336 | -0.532
9 | CPSF2_Q9P2I0_187_EIHLNGCSLEMLSRPSLLITDSFNATYVQPR (UniProt Q9P2I0) | 0.0467 | -0.411
10 | CORO1B_Q9BR76_345_KCEPIVMTVPR (UniProt Q9BR76) | 0.0177 | -0.24
11 | CPSF3_Q9UKF6_498_RNFNYHILSPCDLSNYTDLAMSTVK (UniProt Q9UKF6) | -0.121 | -0.947
12 | CRIP1_P50238_52_PYCNHPCYAAMFGPK (UniProt P50238) | 0.109 | -0.292
13 | CPT1A_P50416_608_SCTTESCDFVR (UniProt P50416) | 0.331 | 0.219
14 | CPSF6_Q16630_159_ELHGQNPVVTPCNK (UniProt Q16630) | 0.0316 | -0.159
15 | CS_O75390_101_GFSIPECQK (UniProt O75390) | -0.0186 | -0.0161
16 | CTPS1_P17812_176_ENFCNIHVSLVPQPSSTGEQK (UniProt P17812) | 0.199 | -0.102
17 | COX19_Q49B96_61_EYLECR (UniProt Q49B96) | -0.0134 | 0.219
18 | CRKL_P46109_44_DSSTCPGDYVLSVSENSR (UniProt P46109) | 0.0857 | 0.0844
19 | CTDP1_Q9Y5B0_114_LEGCSHPVVMK (UniProt Q9Y5B0) | 0.0561 | 0.106
20 | CPNE3_O75131_202_ISLNSLCYGDMDK (UniProt O75131) | 0.104 | -0.158

Row | Target | probe-labelled cysteine peptide fold change (10 µM) | probe-labelled cysteine peptide fold change (50 µM)
21 | CRABP1_P29762_96_IHCTQTLLEGDGPK (UniProt P29762) | -0.0105 | -0.112
22 | CSK_P41240_422_NCWHLDAAMRPSFLQLR (UniProt P41240) | -0.00143 | -0.153
23 | CPNE1_Q99829_53_NCSSPEFSK (UniProt Q99829) | -0.118 | -0.316
24 | CSDE1_O75534_191_CQGVVCAMK (UniProt O75534) | -0.246 | -0.192
25 | CREG1_O75629_147_HGFDPQSPLCVHIMLSGTVTK (UniProt O75629) | 0.0121 | 0.42
26 | CSTF2_P33240_150_LCVQNSPQEAR (UniProt P33240) | -0.0112 | -0.27
27 | CST3_P01034_123_AFCSFQIYAVPWQGTMTLSK (UniProt P01034) | -0.584 | -0.359
28 | CTNNB1_P35222_520_NLALCPANHAPLREQGAIPR (UniProt P35222) | -0.303 | 0.506
29 | CSDE1_O75534_464_EAEDGIIAYDDCGVK (UniProt O75534) | -0.255 | -0.122
30 | CSDE1_O75534_464_EKEAEDGIIAYDDCGVK (UniProt O75534) | -0.315 | -0.691
31 | CSTF2T_Q9H0L4_441_RGMETCAMETR (UniProt Q9H0L4) | 0.00912 | -0.158
32 | CTNNA1_P35221_116_AAAGEFADDPCSSVK (UniProt P35221) | -0.0526 | 0.276
33 | CSTF2T_Q9H0L4_441_GMETCAMETR (UniProt Q9H0L4) | -0.232 | -0.575
34 | CORO1C_Q9ULV4_23_NDQCYDDIR (UniProt Q9ULV4) | 0.000894 | 0.0628
35 | CTCF_P49711_557_YHDPNFVPAAFVCSK (UniProt P49711) | -0.0109 | 0.136
36 | CRABP1_P29762_130_ELANDELILTFGADDVVCTR (UniProt P29762) | 0.082 | 0.307
37 | CRELD1_Q96HD1_229_CSGPEESNCLQCK (UniProt Q96HD1) | 0.126 | 0.0461
38 | CSE1L_P55060_272_SQICDNAALYAQK (UniProt P55060) | 0.168 | 0.267
39 | CRBN_Q96SW2_205_CQIFPSKPVSR (UniProt Q96SW2) | 0.249 | 0.15
